Results are given in words; binding and its absence hold for the method and conditions named.
Experiments:
Experiment in all cases: ELISA, coated antigen 2 µg/mL
FGFR-ECD = biological target: FGFR-ECD
VEGF = biological target: VEGF
CD22.ECD = biological target: CD22.ECD
OX40.ECD = biological target: OX40.ECD
Factor VIII = biological target: Factor VIII

Row | binding (FGFR-ECD) | binding (VEGF) | binding (CD22.ECD) | binding (OX40.ECD) | binding (Factor VIII) | Binder
1 | no binding (tested: 10 µg/mL) | no binding (tested: 10 µg/mL) | no binding (tested: 10 µg/mL) | no binding (tested: 10 µg/mL) | no binding (tested: 10 µg/mL) | W3162-1.146.19-z12-uAb.IgG1K (antibody, V domains shown) VH: QVQLQESGPGLVKPSETLSLTCSVTYHTITSGYDWTWIRKPPGKGMEWIGYISYSGNTNYNPSLKSRVTISRDTSKNQFFLKLSSVTAADTAVYYCASMMVPHYYVMDAWGQGTLVTVSS VL: DIVMTQTPLSLSVTPGQPASISCRSSQSLLNSDGNTYLYWYLQKPGQSPQLLIYLVSKLGSGVPNRFSGSGSGTDFTLKISRVEAEDVGVYYCVQGTHDPWTFGGGTKVEIK
2 | no binding (tested: 10 µg/mL) | no binding (tested: 10 µg/mL) | no binding (tested: 10 µg/mL) | no binding (tested: 10 µg/mL) | no binding (tested: 10 µg/mL) | W3162_1.154.8-z35-uAb.IgG1K (antibody, V domains shown) VH: QVQLVQSGAEVKKPGSSVKVSCKASGYTFTNYFMNWVRQAPGQGLEWMGRVDPEQGRADYAEKFKKRVTITADKSTSTAYMELSSLRSEDTAVYYCARRAMDNYGFAYWGQGTLVTVSS VL: EIVLTQSPDFQSVTPKEKVTITCSANSALSYMYWYQQKPDQSPKLWVHGTSNLASGVPSRFSGSGSGTDFTLTINSLEAEDAATYYCHHWSNTQWTFGGGTKVEIK
